Laboratory results published in the supplement of paper PMC12024529.
Structures can show the parent of a compound that is named as a salt. This is one part of the list. Plates or batches differ in their baseline, so values are only roughly comparable.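 Wild-type or misfolding-prone missense mutant B-domain-deleted factor VIII, fused to Gaussia luciferase, is stably expressed in HEK293 lines. Each score is (mean triplicate-well luminescence minus DMSO mean) divided by DMSO standard deviation. Hits score at least 2; lower scores could stem from decreased secretion or poorer cell viability.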

Legend:
[1] = tested on: HEK293 WT BDD-FVIII-Gluc; experiment: secreted FVIII-Gluc luciferase Z-score vs DMSO control; higher = more FVIII-Gluc secretion; details: 5 µM; 24 h
[2] = tested on: HEK293 p.N1941S BDD-FVIII-Gluc; experiment: as above; details: 5 µM; 24 h

Row | Compound | secreted FVIII-Gluc luciferase Z-score [1] | secreted FVIII-Gluc luciferase Z-score [2]
1 | CC/C(=C(/CC)c1ccc(O)cc1)c1ccc(O)cc1 [Diethylstilbestrol (Stilbestrol)] | inactive: -2.6 | inactive: -1.58
2 | O=C(NC[C@H]1CN(c2ccc(N3CCOCC3=O)cc2)C(=O)O1)c1ccc(Cl)s1 [Rivaroxaban (Xarelto)] | active: 3.52 | inactive: 0.733
3 | C[C@H](N)[C@H](O)c1cccc(O)c1 [Metaraminol Bitartrate] | inactive: -0.491 | inactive: -0.615
4 | C[C@]12CC[C@@H]3c4ccc(O)cc4CC[C@H]3[C@@H]1C[C@@H](O)[C@@H]2O [Estriol] | inactive: -2.9 | inactive: -2.03
5 | CC1(C)O[C@@H]2[C@@H](CO[C@@]3(COS(N)(=O)=O)OC(C)(C)O[C@@H]23)O1 [Topiramate] | inactive: 1.25 | inactive: 0.413
6 | CC(=O)/N=c1/sc(S(N)(=O)=O)nn1C [Methazolamide] | inactive: -0.677 | inactive: 0.857
7 | N=C(N)c1ccc(N=NNc2ccc(C(=N)N)cc2)cc1 [Diminazene Aceturate] | inactive: 0.457 | inactive: 0.653
8 | CC1(C)O[C@@H]2C[C@H]3[C@@H]4CCC5=CC(=O)C=C[C@]5(C)[C@H]4[C@@H](O)C[C@]3(C)[C@]2(C(=O)CO)O1 [Desonide] | active: 7.8 | active: 4.88
9 | c1ccc(-c2ccc(C(c3ccccc3)n3ccnc3)cc2)cc1 (stereo unspecified) [Bifonazole] | inactive: -1.61 | inactive: -2.6
10 | OC[C@@H](O)[C@@H](O)[C@H](O)[C@H](O)CO [D-Mannitol (Osmitrol)] | inactive: 0.49 | inactive: -0.793
11 | COc1cc(/C=C/C(=O)N2CCN(CC(=O)N3CCCC3)CC2)cc(OC)c1OC [Cinepazide maleate] | active: 2.27 | inactive: 0.258
12 | CC(C)(C#N)c1cc(Cn2cncn2)cc(C(C)(C)C#N)c1 [Anastrozole] | inactive: 0.471 | inactive: -2.66
13 | COC(=O)[C@H](c1ccccc1Cl)N1CCc2sccc2C1 [Clopidogrel (Plavix)] | inactive: -0.763 | inactive: -0.531
14 | CCCCc1oc2ccc(NS(C)(=O)=O)cc2c1C(=O)c1ccc(OCCCN(CCCC)CCCC)cc1 [Dronedarone HCl (Multaq)] | inactive: -0.0311 | inactive: -1.17
15 | C[C@H](CCC(=O)O)[C@H]1CC[C@H]2[C@@H]3CC[C@@H]4C[C@H](O)CC[C@]4(C)[C@H]3CC[C@]12C [Lithocholic acid] | inactive: -0.183 | inactive: 0.719
16 | COc1cc(C(C)=O)ccc1OCCCN1CCC(c2noc3cc(F)ccc23)CC1 [Iloperidone (Fanapt)] | inactive: -4.96 | inactive: -0.944
17 | C[C@@](Cc1ccc(O)c(O)c1)(NN)C(=O)O [Carbidopa] | inactive: -3.05 | inactive: -3.51
18 | Nc1nc(Cl)nc2c1ncn2[C@H]1C[C@H](O)[C@@H](CO)O1 [Cladribine] | inactive: -2.76 | inactive: -9
19 | CN(CCOc1ccc(CC2SC(=O)NC2=O)cc1)c1ccccn1 (stereo unspecified) [Rosiglitazone (Avandia)] | inactive: 0.525 | inactive: -0.184
20 | CC(=O)OCC(=O)[C@@]12OC(C)(C)O[C@@H]1C[C@H]1[C@@H]3C[C@H](F)C4=CC(=O)C=C[C@]4(C)[C@@]3(F)[C@@H](O)C[C@@]12C [Fluocinonide (Vanos)] | active: 12.3 | active: 2.92
21 | CCn1cc(C(=O)O)c(=O)c2ccc(C)nc21 [Nalidixic acid (NegGram)] | inactive: 0.696 | inactive: -0.704
22 | CC(C(=O)O)c1cccc(Oc2ccccc2)c1 (stereo unspecified) [Fenoprofen calcium] | inactive: 0.535 | inactive: 0.391
23 | CN1[C@@H]2CC[C@H]1C[C@@H](OC(=O)c1c[nH]c3ccccc13)C2 [Tropisetron] | inactive: -2.38 | inactive: -3.03
24 | CCCc1ncc(C[n+]2ccccc2C)c(N)n1 [Amprolium HCl] | inactive: 1.17 | inactive: 1.09
25 | CCCSc1nc(N[C@@H]2C[C@H]2c2ccc(F)c(F)c2)c2nnn([C@@H]3C[C@H](OCCO)[C@@H](O)[C@H]3O)c2n1 [Ticagrelor] | inactive: 0.175 | inactive: 0.0935
26 | COc1c(N2C[C@@H]3CCCN[C@@H]3C2)c(F)cc2c(=O)c(C(=O)O)cn(C3CC3)c12 [Moxifloxacin hydrochloride] | inactive: -4.91 | inactive: 0.404
27 | Cc1ccc(-n2[nH]c(C)c(N=Nc3cccc(-c4cccc(C(=O)O)c4)c3O)c2=O)cc1C | inactive: -0.116 | inactive: -1.03
28 | O=C(O)/C=C/c1ccc(Cn2ccnc2)cc1 [Ozagrel] | inactive: 0.245 | inactive: -1.32

Record cards, as listed above:
O=C(O)/C=C/c1ccc(Cn2ccnc2)cc1 [Ozagrel] in the list: secreted FVIII-Gluc luciferase Z-score [1]: inactive: 0.245; secreted FVIII-Gluc luciferase Z-score [2]: inactive: -1.32
C[C@]12CC[C@@H]3c4ccc(O)cc4CC[C@H]3[C@@H]1C[C@@H](O)[C@@H]2O [Estriol] in the list: secreted FVIII-Gluc luciferase Z-score [1]: inactive: -2.9; secreted FVIII-Gluc luciferase Z-score [2]: inactive: -2.03
